PubChem BioAssay AID1259425 | University of Nebraska Medical Center – 2018
In all, the deposit lists about 14,000 reagents; shown is a random part of them. Not all columns of the deposit are shown. The record does not give: the time to read-out.

Purpose: 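Compare each knockdown with KSR1 silencing using changes in marker transcripts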 (primary screen)
System: HCT116 human colon cancer cells
Knock-down reagent: siRNA pool against human genes, 50 nM siRNA
Detection: 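After 50 nM siRNA pool, branched-DNA assay measures six marker transcripts per well, minus blank, normalised to the geometric mean of two housekeeping transcripts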
Scale: BNIP3L mRNA: higher = more BNIP3L transcript after knockdown; NDRG1 mRNA: higher = more NDRG1 transcript after knockdown

After knock-down of KDM5C the results were BNIP3L mRNA, set 1 = 0.158; NDRG1 mRNA, set 1 = 0.099. Against COIL the deposit lists BNIP3L mRNA, set 1 = 0.0818; NDRG1 mRNA, set 1 = 0.161. Silencing of PSIP1 gave: BNIP3L mRNA, set 1 = 0.0829; NDRG1 mRNA, set 1 = 0.318. FBXW5 showed BNIP3L mRNA, set 1 = 0.244; NDRG1 mRNA, set 1 = 1.11. Against RRN3, the values are BNIP3L mRNA, set 1 = 0.23; NDRG1 mRNA, set 1 = 0.346. TNFAIP1 gave BNIP3L mRNA, set 1 = 0.127; NDRG1 mRNA, set 1 = 0.124.

XG scored BNIP3L mRNA, set 1 = 0.0501; NDRG1 mRNA, set 1 = 0.0636. With knock-down of DPF2 the results were BNIP3L mRNA, set 1 = 0.0659; NDRG1 mRNA, set 1 = 0.207. ZNF510 showed BNIP3L mRNA, set 1 = 0.11; NDRG1 mRNA, set 1 = 0.088. After knock-down of DTX2, the record shows BNIP3L mRNA, set 1 = 0.0881; NDRG1 mRNA, set 1 = 0.0813. UBE2W gave BNIP3L mRNA, set 1 = 0.0982; NDRG1 mRNA, set 1 = 0.123. UFD1 scored BNIP3L mRNA, set 1 = 0.14; NDRG1 mRNA, set 1 = 0.279.

Depletion of GORASP1 resulted in: BNIP3L mRNA, set 1 = 0.061; NDRG1 mRNA, set 1 = 0.207. After knock-down of E2F2, the screen gave BNIP3L mRNA, set 1 = 0.0886; NDRG1 mRNA, set 1 = 0.269. Silencing of NEMF came out at: BNIP3L mRNA, set 1 = 0.0856; NDRG1 mRNA, set 1 = 0.223. Knock-down of CBLC gave: BNIP3L mRNA, set 1 = 0.0469; NDRG1 mRNA, set 1 = 0.185. After knock-down of BATF, the record shows BNIP3L mRNA, set 1 = 0.0917; NDRG1 mRNA, set 1 = 0.0921. TRAF1 showed BNIP3L mRNA, set 1 = 0.142; NDRG1 mRNA, set 1 = 0.638.

Against GINS3, the entry reads BNIP3L mRNA, set 1 = 0.103; NDRG1 mRNA, set 1 = 0.15. For SMAD6, the values are BNIP3L mRNA, set 1 = 0.101; NDRG1 mRNA, set 1 = 0.226. For URI1 the deposit lists BNIP3L mRNA, set 1 = 0.0643; NDRG1 mRNA, set 1 = 0.214. Depletion of SEC22A gave: BNIP3L mRNA, set 1 = 0.127; NDRG1 mRNA, set 1 = 0.246. MAFK scored BNIP3L mRNA, set 1 = 0.0838; NDRG1 mRNA, set 1 = 0.0761. With knock-down of EML4, the screen gave BNIP3L mRNA, set 1 = 0.145; NDRG1 mRNA, set 1 = 0.14.

Against BIRC5, the entry reads BNIP3L mRNA, set 1 = 0.122; NDRG1 mRNA, set 1 = 0.166. Depletion of BPIFA1 gave: BNIP3L mRNA, set 1 = 0.0864; NDRG1 mRNA, set 1 = 0.283. For MYH15 the deposit lists BNIP3L mRNA, set 1 = 0.192; NDRG1 mRNA, set 1 = 0.136. For MAGEA2, the entry reads BNIP3L mRNA, set 1 = 0.0915; NDRG1 mRNA, set 1 = 0.956. Depletion of ARID5B resulted in: BNIP3L mRNA, set 1 = 0.109; NDRG1 mRNA, set 1 = 0.0307. With knock-down of PFDN6, the screen gave BNIP3L mRNA, set 1 = 0.171; NDRG1 mRNA, set 1 = 0.167.

PRKCQ showed BNIP3L mRNA, set 1 = 0.0808; NDRG1 mRNA, set 1 = 0.0747. For PART1 the deposit lists BNIP3L mRNA, set 1 = 0.161; NDRG1 mRNA, set 1 = 0.546. ELP5 scored BNIP3L mRNA, set 1 = 0.147; NDRG1 mRNA, set 1 = 0.371. Against MTMR1, the entry reads BNIP3L mRNA, set 1 = 0.092; NDRG1 mRNA, set 1 = 0.0845. Against ALAS1, the entry reads BNIP3L mRNA, set 1 = 0.105; NDRG1 mRNA, set 1 = 0.299. CNDP2 gave BNIP3L mRNA, set 1 = 0.0703; NDRG1 mRNA, set 1 = 0.129.

Reprinted from above (2 entries):
MAFK → BNIP3L mRNA, set 1 = 0.0838; NDRG1 mRNA, set 1 = 0.0761
EML4 → BNIP3L mRNA, set 1 = 0.145; NDRG1 mRNA, set 1 = 0.14
